Some of the results follow. Further columns of the screen follow, without active or inactive calls. The list favours compounds with an active or inconclusive main result. The note in brackets gives the kind of curve behind each potency; many fits are weak.

40 compounds from PubChem BioAssay AID2685 (National Center for Advancing Translational Sciences (NCATS), 2010) can be followed below.

This test in a line: qHTS Assay for Lipid Storage Modulators in Drosophila S3 Cells.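 As to cell number change: cells counted by Cell Tracker Red CMTPX staining in the red channel.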 To be noted: BODIPY lipid droplet fluorescence, 18-24 h; for cell number change: measured here: cell count max response, cells fed with added oleic acid. An outline of the steps: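 Laser-scanning cytometry quantifies lipid droplet accumulation (500–530 nm total intensity; droplet/cell object ratio) in oleic acid-fed (400 uM added) Drosophila S3 cells treated with a concentration series. 20 uM Triacsin C defined 100% inhibition.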

Setting [1] is: measured here: cell number channel AC50, cells fed with added oleic acid.
[2] abbreviates: measured here: lipid fluorescence (Fed channel) AC50, cells fed with added oleic acid.

Take `CC(=O)Nc1ccc(NC(=O)C(C)OC(=O)CCCN=C2NS(=O)(=O)c3ccccc32)cc1` (stereo not drawn): the cell number change stood at 50%. Besides, the AC50 under setting [1] was 29.1 µM [rising, single point].
With `O=C1CC(c2cccs2)Cc2nc(NCC3CCCO3)ncc21` (stereo not drawn), the cell number change was found to be 46.9%. Besides, the AC50 under setting [1] is 0.731 µM [rising, full curve]. Also, the AC50 under setting [2] is 1.16 µM [rising, single point].
As to `COC(=O)c1cc(-c2ccc(Br)cc2)n[nH]1`, the half-maximal activity concentration (AC50) under setting [2] was 0.651 µM [falling, single point].
On to `CCOc1ccc(NC(=O)CNS(=O)(=O)c2c(C)cc(C)cc2C)cc1`, for which the concentration at half-maximal activity (AC50) under setting [2] was 0.82 µM [falling, full curve].
With `CCOc1ccccc1Nc1cc(C)c2cccc(C)c2n1`, the cell number change came out at 21.4%. In addition, the half-maximal activity concentration (AC50) under setting [2] is 29.1 µM [falling, single point].
`CCOC(=O)c1ccc2[nH]c3c(c2c1)CCCC3C(=O)OCC` (stereo not drawn): the cell number change is -4.03%. Under setting [1], the AC50 was 2.31 µM [rising, partial curve, poor fit].
Regarding `S=c1[nH]c2cc3c(cc2[nH]1)OCCO3`, the cell number change is -11.1%.
As to `CC(OC(=O)c1ccccc1C(=O)N(C)C1CCCCC1)C(=O)NC1(C#N)CCCCC1` (stereo not drawn), the cell number change is -3.85%.
For `CC(=O)c1ccc(N2CCN(C(=O)c3ccc(-c4ccccc4)cc3)CC2)cc1`, the cell number change was determined as 4.44%. Also, the half-maximal activity concentration (AC50) under setting [1] was 0.058 µM [rising, full curve, poor fit].
On to `N#C/C(=C\c1c(N2CCCCCC2)nc2ccccn2c1=O)C(=O)NCc1ccco1`, for which the cell number change worked out at 17.4%. Under setting [2], the AC50 was 1.03 µM [rising, partial curve].
Take `CCOc1cc(Cl)c(S(=O)(=O)NCc2ccccn2)cc1Cl`: the cell number change is -15.7%. Besides, the half-maximal activity concentration (AC50) under setting [2] is 6.51 µM [falling, single point].
Consider `O=C(NCCN1CCN(Cc2ccccc2)CC1)c1cc2c(=O)[nH]c3ccccc3c2s1`, for which the cell number change was 1.13%. Besides, under setting [2], the AC50 was 9.2 µM [rising, partial curve].
As to `C/C(CC(=O)Nc1ccc(Cl)cc1Cl)=N\NC(N)=S`, the cell number change is -18.7%. Further, the half-maximal activity concentration (AC50) under setting [2] was 16.4 µM [falling, partial curve, poor fit].
Regarding `COc1ccc(-c2nn(-c3ccccc3)cc2CNC(=O)c2cccc([N+](=O)[O-])c2)cc1`, the cell number change is -27.1%.
For `Cc1cc(C(=O)CCC(=O)N2CCN(c3ccccc3F)CC2)c(C)s1`, the cell number change stood at 19.6%. Also, the half-maximal activity concentration (AC50) under setting [2] was 5.8 µM [rising, single point].
For `CCCCCCc1cc2cc(C(=O)NCc3ccccc3)c(=N)oc2cc1O`, the cell number change is -49%. For the same compound, the AC50 under setting [1] was 14.6 µM [falling, partial curve]. Under setting [2], the AC50 is 13 µM [falling, partial curve].
In the case of `COc1ccc(CN2C(=O)c3ccccc3C2=O)cc1C(=O)Nc1ccccc1N1CCOCC1`, the cell number change worked out at 28.4%. Besides, the AC50 under setting [1] was 6.51 µM [rising, single point].
Take `COC(=O)c1c(NC(=O)Cc2cccs2)sc(C(=O)N2CCCCC2)c1C`: the cell number change is -25%. The AC50 under setting [2] was 32.6 µM [falling, single point].
In the case of `COc1cc(OC)cc(C(=O)NNC(=S)NC2CC2)c1`, the cell number change is 17.6%. Further, under setting [2], the AC50 was 0.092 µM [rising, full curve, poor fit].
As for `COc1cc(/C(C)=N\NC(=O)CSc2nc3ccccc3n2C)ccc1O`, the cell number change came to 8.19%.
With `CC(=O)N1CCc2cc(S(=O)(=O)NCCC(=O)NC3CCCCCC3)ccc21`, the cell number change is -11.8%. Besides, the AC50 under setting [2] was 20.6 µM [rising, single point].
As to `COc1ccc(NC(=O)N2c3ccccc3CC2C)cc1OC` (stereo not drawn), the cell number change was 18.7%.
Take `COc1ccc(C2NC(=O)NC(C)=C2C(=O)OC2CCCC(C)C2)cc1` (stereo not drawn): the cell number change was -12.4%.
On to `O=C(CCSCCc1ccccn1)Nc1ccccn1`, for which the cell number change is 30.2%. In addition, the concentration at half-maximal activity (AC50) under setting [1] is 23.1 µM [rising, partial curve, poor fit].
With `CCN(C1CCCCC1)S(=O)(=O)c1ccc(OC)c(C)c1`, the cell number change is -0.312%.
`Cn1c(CNC(=O)CNC(=O)Cc2ccc(F)cc2)cc(=O)n(C)c1=O`: the cell number change was 20%.
As to `O=C(c1cc(COc2ccc3ncccc3c2)on1)N1CCCC1`, the AC50 under setting [2] is 4.61 µM [falling, partial curve].
Turning to `CC(C)(C)NC(=O)C(c1cccs1)N(Cc1cccs1)C(=O)c1ccc(CN2CCOCC2)o1` (stereo not drawn), the cell number change was 19.1%. Further, the concentration at half-maximal activity (AC50) under setting [2] was 4.11 µM [rising, full curve].
For the compound `COc1ccc(S(=O)(=O)Cc2ccc(C(=O)NC3CC3)o2)cc1`, the cell number change was 49.6%. For the same compound, under setting [1], the concentration at half-maximal activity (AC50) is 3.66 µM [rising, single point]. In addition, the concentration at half-maximal activity (AC50) under setting [2] was 23.1 µM [rising, partial curve].
For `COc1ccc(OCc2nc(N)nc(Nc3ccccc3)n2)cc1`, the cell number change amounted to 70.3%. The concentration at half-maximal activity (AC50) under setting [1] is 2.31 µM [rising, full curve]. The concentration at half-maximal activity (AC50) under setting [2] is 4.61 µM [rising, full curve].
Regarding `O=c1c2c(nc3nc(NCc4ccccc4Cl)[nH]n13)CCC2`, the half-maximal activity concentration (AC50) under setting [1] is 6.51 µM [rising, single point].
For `CCCCC(Sc1nc(N)c(NC(=O)c2ccc(OCC)cc2)c(=O)[nH]1)C(=O)O` (stereo not drawn), the cell number change is -12%. Besides, the AC50 under setting [1] was 0.103 µM [falling, full curve, poor fit]. For the same compound, the AC50 under setting [2] was 0.13 µM [falling, full curve, poor fit].
On to `Cc1cc(C)cc(C(=O)N2CCCCCC2)c1`, for which the cell number change amounted to 21.3%. Besides, under setting [2], the AC50 is 0.206 µM [rising, full curve, poor fit].
`CO/N=C/NC(=O)c1c(OC)ccnc1Oc1ccc(Cl)cc1`: the cell number change was determined as 20.4%. Besides, the AC50 under setting [2] is 23.1 µM [rising, single point].
Turning to `C/C(Cl)=C\Cn1c(O)c(N=NC(N)=S)c2cc(Br)ccc21`, the cell number change is -52.9%. Also, the half-maximal activity concentration (AC50) under setting [1] was 20.6 µM [falling, single point]. Further, the AC50 under setting [2] is 20.6 µM [falling, partial curve].
As to `Cc1cc(C)c2c(c1)/C(=N/NS(=O)(=O)c1ccc(Br)cc1)CCC2`, the cell number change is -57.3%. In addition, under setting [1], the AC50 was 16.4 µM [falling, single point].
As to `COc1ccc(NC(=O)CSc2nccc(C)n2)cc1`, the AC50 under setting [2] was 4.61 µM [rising, partial curve].
As for `O=C(CSc1n[nH]c(=O)[nH]c1=O)c1ccccc1[N+](=O)[O-]`, the cell number change amounted to 3.8%. In addition, under setting [2], the AC50 was 0.0058 µM [falling, full curve, poor fit].
For the compound `CCc1cc(C(=O)N2CCN(S(=O)(=O)c3ccc(Cl)cc3)CC2)sc1C`, the AC50 under setting [2] is 14.6 µM [falling, partial curve, poor fit].
Turning to `Cc1ccc(-c2nnc(SCC#CCOC(=O)c3ccco3)o2)cc1`, the cell number change was determined as 93.7%. Further, the AC50 under setting [1] is 8.2 µM [rising, partial curve, poor fit]. For the same compound, under setting [2], the AC50 is 1.16 µM [rising, full curve].
